Record: PubChem BioAssay AID504784 (Drosophila RNAi Screening Center, 2011)
Test: 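Fly genes whose silencing alters how much lipid cells keep in droplets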 (primary screen). Cells: Drosophila Kc167 embryonic cells. Reagents: long dsRNA against Drosophila genes, about 250 ng dsRNA per well. Timing: 4 days. Treatment: cells fed 400 µM oleic acid bound to BSA. Measurement: 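Cells imaged and segmented; ratio of lipid droplet area to nuclear area, log-transformed, then normalised as a B-score over the screen; higher means more stored lipid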. Scale: droplet/nuclear area B-score: higher = more stored lipid (overstorage).
In all, the deposit lists about 17,000 reagents; this is a random part of those that have a named target and a result. 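Each column is one replicate's B-score; the combined score over replicates was not deposited, so single values may mislead.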 Not all columns of the deposit are shown.

Cyp6u1 (Cytochrome P450 6u1) [DRSC05015] | droplet/nuclear area B-score, replicate 1 = -0.242
CG4935 [DRSC01924] | droplet/nuclear area B-score, replicate 1 = 0.0786
CG15343 [DRSC18028] | droplet/nuclear area B-score, replicate 1 = 0.079
GAPsec (GTPase activating protein, SECIS-dependent read-through) [DRSC10564] | droplet/nuclear area B-score, replicate 1 = -1.2
mei-P22 (meiotic P22) [DRSC11366] | droplet/nuclear area B-score, replicate 1 = 1.81
Pvf1 (PDGF- and VEGF-related factor 1) [DRSC20024] | droplet/nuclear area B-score, replicate 1 = -0.0438
JMJD6 (Jumonji domain containing 6) [DRSC15787] | droplet/nuclear area B-score, replicate 1 = -1.03
vnd (ventral nervous system defective) [DRSC18849] | droplet/nuclear area B-score, replicate 1 = -0.102
vnd (ventral nervous system defective) [DRSC22487] | droplet/nuclear area B-score, replicate 1 = 0.634
Trmt6 (tRNA methyltransferase 6 non-catalytic subunit) [DRSC03272] | droplet/nuclear area B-score, replicate 1 = 1.04
eIF4A (eukaryotic translation initiation factor 4A) [DRSC03526] | droplet/nuclear area B-score, replicate 1 = 3.15
CG5177 [DRSC02824] | droplet/nuclear area B-score, replicate 1 = -0.458
CG8460 [DRSC03090] | droplet/nuclear area B-score, replicate 1 = 0.361
x16 (x16 splicing factor) [DRSC00960] | droplet/nuclear area B-score, replicate 1 = -0.293
x16 (x16 splicing factor) [DRSC03638] | droplet/nuclear area B-score, replicate 1 = -0.891
CG3517 [DRSC15492] | droplet/nuclear area B-score, replicate 1 = 0.408
E(spl)m6-BFM (Enhancer of split m6, Bearded family member) [DRSC16993] | droplet/nuclear area B-score, replicate 1 = -0.152
CG17109 [DRSC15172] | droplet/nuclear area B-score, replicate 1 = -0.00882
Npc2g (Niemann-Pick type C-2g) [DRSC14296] | droplet/nuclear area B-score, replicate 1 = 1.06
Doc1 (Dorsocross1) [DRSC11146] | droplet/nuclear area B-score, replicate 1 = -0.153
CG17085 (retired record) [DRSC02565] | droplet/nuclear area B-score, replicate 1 = -0.256
CG17085 (retired record) [DRSC02566] | droplet/nuclear area B-score, replicate 1 = -0.138
sd (scalloped) [DRSC20370] | droplet/nuclear area B-score, replicate 1 = -0.994
sd (scalloped) [DRSC21712] | droplet/nuclear area B-score, replicate 1 = -0.837
CG11878 [DRSC14422] | droplet/nuclear area B-score, replicate 1 = 0.247
CG4210 [DRSC15551] | droplet/nuclear area B-score, replicate 1 = -0.2
Nap1 (Nucleosome assembly protein 1) [DRSC04626] | droplet/nuclear area B-score, replicate 1 = -0.197
Ir75c (Ionotropic receptor 75c) [DRSC10190] | droplet/nuclear area B-score, replicate 1 = 0.441
BOD1 (Biorientation Defective 1) [DRSC15824] | droplet/nuclear area B-score, replicate 1 = -0.134
NdufA3 (NADH:ubiquinone oxidoreductase subunit A3) [DRSC18431] | droplet/nuclear area B-score, replicate 1 = -1.03
CG34282 [DRSC16298] | droplet/nuclear area B-score, replicate 1 = 0.982
Gclc (Glutamate-cysteine ligase catalytic subunit) [DRSC18666] | droplet/nuclear area B-score, replicate 1 = 0.242
CG10477 [DRSC09732] | droplet/nuclear area B-score, replicate 1 = -0.0825
CG7099 [DRSC03006] | droplet/nuclear area B-score, replicate 1 = 0.0379
Ca-beta (Ca2+-channel-protein-beta-subunit) [DRSC02406] | droplet/nuclear area B-score, replicate 1 = 0.789
Ca-beta (Ca2+-channel-protein-beta-subunit) [DRSC02407] | droplet/nuclear area B-score, replicate 1 = -2.55
Ca-beta (Ca2+-channel-protein-beta-subunit) [DRSC03285] | droplet/nuclear area B-score, replicate 1 = 0.423
Ca-beta (Ca2+-channel-protein-beta-subunit) [DRSC21432] | droplet/nuclear area B-score, replicate 1 = 0.00418
verm (vermiform) [DRSC11038] | droplet/nuclear area B-score, replicate 1 = 0.81
Hml (Hemolectin) [DRSC11183] | droplet/nuclear area B-score, replicate 1 = 1.9
CG14220 [DRSC19577] | droplet/nuclear area B-score, replicate 1 = -1.27
Rpt4 (Regulatory particle triple-A ATPase 4) [DRSC18713] | droplet/nuclear area B-score, replicate 1 = 0.527
CG14100 [DRSC10101] | droplet/nuclear area B-score, replicate 1 = 0.486
obst-G (obstructor-G) [DRSC11103] | droplet/nuclear area B-score, replicate 1 = 0.0184
Nuak (Nuak family kinase) [DRSC14414] | droplet/nuclear area B-score, replicate 1 = 0.558
Nuak (Nuak family kinase) [DRSC14415] | droplet/nuclear area B-score, replicate 1 = 0.392
Nuak (Nuak family kinase) [DRSC14416] | droplet/nuclear area B-score, replicate 1 = 0.209
CG17329 [DRSC01926] | droplet/nuclear area B-score, replicate 1 = -0.686
DnaJ-H (DnaJ homolog) [DRSC03273] | droplet/nuclear area B-score, replicate 1 = 0.00118
vers (versatile) [DRSC10715] | droplet/nuclear area B-score, replicate 1 = 3.48
vers (versatile) [DRSC23232] | droplet/nuclear area B-score, replicate 1 = -0.0394

Not a retest: 6 of the entries above.
vnd (ventral nervous system defective) [DRSC22487] | droplet/nuclear area B-score, replicate 1 = 0.634
Trmt6 (tRNA methyltransferase 6 non-catalytic subunit) [DRSC03272] | droplet/nuclear area B-score, replicate 1 = 1.04
eIF4A (eukaryotic translation initiation factor 4A) [DRSC03526] | droplet/nuclear area B-score, replicate 1 = 3.15
CG5177 [DRSC02824] | droplet/nuclear area B-score, replicate 1 = -0.458
CG8460 [DRSC03090] | droplet/nuclear area B-score, replicate 1 = 0.361
x16 (x16 splicing factor) [DRSC00960] | droplet/nuclear area B-score, replicate 1 = -0.293
